Test results taken from PubChem BioAssay AID540275 (National Center for Advancing Translational Sciences (NCATS), 2011).
Out of some 320,000 compounds screened, about 620 (0.19%) were called active. The inconclusive results got no clear call from the source; some entries with a clear call stand among them for comparison. Cut-off read from the data, not from the text of the source: active = activation above about 80%; inconclusive = between about 30% and that limit; inactive = weaker than that.
Note: 0% is about no effect.

Sequences of proteins named here, by UniProt entry; tags and fusion partners are left off.
UniProt Q8NER1, whole entry, looked up: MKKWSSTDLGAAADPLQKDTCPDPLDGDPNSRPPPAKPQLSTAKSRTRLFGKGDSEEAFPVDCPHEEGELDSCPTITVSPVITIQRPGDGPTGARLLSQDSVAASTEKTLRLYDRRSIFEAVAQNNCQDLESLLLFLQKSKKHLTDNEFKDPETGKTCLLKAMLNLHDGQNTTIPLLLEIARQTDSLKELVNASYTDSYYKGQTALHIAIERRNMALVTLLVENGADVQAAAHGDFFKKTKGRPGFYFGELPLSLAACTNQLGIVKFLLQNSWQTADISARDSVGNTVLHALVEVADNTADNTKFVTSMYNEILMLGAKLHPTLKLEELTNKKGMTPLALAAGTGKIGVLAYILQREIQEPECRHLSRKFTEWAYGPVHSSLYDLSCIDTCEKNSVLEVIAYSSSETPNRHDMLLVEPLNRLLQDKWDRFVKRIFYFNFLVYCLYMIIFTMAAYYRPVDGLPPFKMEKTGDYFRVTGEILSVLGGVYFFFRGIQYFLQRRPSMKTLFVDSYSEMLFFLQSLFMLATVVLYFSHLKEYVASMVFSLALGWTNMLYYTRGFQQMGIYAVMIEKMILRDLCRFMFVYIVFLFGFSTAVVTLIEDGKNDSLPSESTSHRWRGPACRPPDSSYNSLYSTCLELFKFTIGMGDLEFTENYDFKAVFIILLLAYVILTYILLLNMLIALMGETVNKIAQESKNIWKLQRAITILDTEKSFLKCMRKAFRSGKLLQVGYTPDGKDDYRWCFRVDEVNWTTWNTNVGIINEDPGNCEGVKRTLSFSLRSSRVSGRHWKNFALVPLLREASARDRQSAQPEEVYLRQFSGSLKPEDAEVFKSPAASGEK

Each molecule was assayed against Transient receptor potential cation channel subfamily V member 1 (Homo sapiens) (UniProt Q8NER1) (assay: HTS Assay for Compounds that Act as Agonists of the Vanilloid Receptor 1). Settings: TRPV1-expressing cells, Fluo-8 calcium influx, agonist mode; at 8.33 µM, active compounds read high.
Procedure, shortened: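 TRPV1-expressing cells were cultured overnight at 35.5C and loaded with Fluo-8 calcium dye for 40 to 90 min at room temperature. After a 10 s baseline, compound was added and calcium influx was read kinetically for 3 min (ex 480/em 520 nm).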
For CCOC(=O)COc1ccc(Cl)cc1C1NC(=O)NC(C)=C1C(C)=O (stereo not given), the activation was inconclusive: 51.2%.
For O=C(c1cc(-c2ccncc2)nc2ccc(Cl)cc12)N1CCN(Cc2ccc3c(c2)OCO3)CC1, the activation was inconclusive: 43.5%.
For O=C(c1ccc(S(=O)(=O)N2CCCCCC2)cc1)N1CCC(CN2C(=O)c3cccc4cccc(c34)C2=O)CC1, the activation was inconclusive: 32%.
For Cc1ccc(Cl)cc1N1CCN(S(=O)(=O)N2CCCCC2)CC1, the activation was inconclusive: 40.4%.
For Cc1cc(NC(=O)c2cnn3c(C(F)(F)F)cc(-c4ccc(Br)cc4)nc23)no1, the activation was inconclusive: 34.1%.
For CC(C)C(NC(=O)/C=C/c1ccc(F)cc1)C(C)C, the activation was inconclusive: 36.8%.
In the case of COc1ccc(NC(=O)c2cccc([N+](=O)[O-])c2)cc1, the activation is reported as inactive: 4.43%.
For CCCn1nc(NC(=O)c2ccco2)c2cc3ccccc3nc21, the activation was inconclusive: 41.1%.
CC(=O)c1ccc(OCc2cc(C(=O)N3CCCCCCC3)no2)cc1 was tested, and the activation was inconclusive: 36.4%.
CC(=O)c1cccc(NC(=S)NCc2ccccc2)c1 was tested, and the activation was inconclusive: 53.3%.
For COc1ccc2c(CCNC(=O)c3ccc([N+](=O)[O-])cc3)c[nH]c2c1, the activation was inconclusive: 35.6%.
In the case of COc1cccc(N2CCN(C(=O)c3cc4c(s3)CCCCC4)CC2)c1, the activation is reported as inconclusive: 49.5%.
With Cc1cccc(N2CCN(C(=O)c3cc4cc(F)ccc4[nH]3)CC2)c1C the activation was inconclusive: 30.7%.
For O=C(CCCc1ccccc1)NCCc1ccc(F)cc1, the activation was inconclusive: 52.9%.
In the case of CCOC(=O)Cn1c(C)nc2c(C(=O)OCC)sc(C)c2c1=O, the activation is reported as inactive: -1.59%.
O=C(COC(=O)c1ccc(S(=O)(=O)Nc2ccccc2)cc1)NC1CCCC1 was tested, and the activation was inactive: 1.13%.
CC(=O)c1cccc(CN2CCN(C(C)C)C(CCO)C2)c1 (stereo not given) was tested, and the activation was inactive: -0.943%.
For CC(NC(=S)Nc1ccc(F)cc1)c1ccccc1 (stereo not given), the activation was inconclusive: 38.3%.
For CCCC(=O)Nc1sc(C)c(C)c1C(=O)Nc1cccc(C)c1, the activation was inconclusive: 54.2%.
In the case of Cc1n[nH]c(=S)n1/N=C/c1c(O)ccc2ccccc12, the activation is reported as inactive: -5.51%.
For CCCS(=O)(=O)c1c(S(=O)(=O)CCC)c2cnccn2c1C(=O)c1ccc(Cl)cc1, the activation was inactive: 4.13%.
With Cc1cccc(-n2ncc3c(NC4CCCCC4)ncnc32)c1 the activation was inconclusive: 58%.
CCCc1nc(N2CCOCC2)c(C#N)c2c1CCCC2 was tested, and the activation was inactive: 20.9%.
In the case of COc1ccccc1N1CCN(CC(=O)Nc2ccccc2C(=O)NCCc2ccccc2)CC1, the activation is reported as inconclusive: 31.8%.
In the case of Fc1cccc(CSc2ncnc3c2oc2ccccc23)c1, the activation is reported as inactive: 4.92%.
For O=C(/C=C/c1ccccc1)N1CCN(C(=O)c2ccco2)CC1, the activation was inactive: 1.3%.
For CC(C)(C)OC(=O)N1CCC2(CC1)Oc1ccc(F)cc1C(=O)C21CC(c2cccnc2)=NO1 (stereo not given), the activation was inconclusive: 65.6%.
With Cc1ccc(NC(=O)CSc2nc3ccccc3nc2N2CCOCC2)cc1 the activation was inconclusive: 55.2%.
In the case of C=C1C2(C(=O)Nc3ccc(SC(F)F)cc3)CCC(C2)C1(C)C (stereo not given), the activation is reported as inconclusive: 46.5%.
CN(C)S(=O)(=O)c1ccc(NC(=O)C2CC(=O)N(Cc3ccccc3Cl)C2)cc1 (stereo not given) was tested, and the activation was inconclusive: 36.7%.
CCOc1ccc(N(CC(=O)N2CCCCC2)S(=O)(=O)c2ccc(Cl)cc2)cc1 was tested, and the activation was inconclusive: 48.8%.
With CCCNc1nc(OC(C(F)(F)F)C(F)(F)F)nc(OC(C(F)(F)F)C(F)(F)F)n1 the activation was inconclusive: 30.6%.
With S=C(NNc1ccnc2cc(Cl)ccc12)Nc1ccccc1Cl the activation was inconclusive: 55%.
In the case of CCC(=O)N1CCN(c2ccccc2NC(=O)c2ccc(OC)c(Cl)c2)CC1, the activation is reported as inconclusive: 36.7%.
For CC(=O)N1CCN(c2ccc(NC(=O)c3ccco3)cc2)CC1, the activation was inactive: -1.02%.
O=C1c2ccccc2N2C(=O)c3ccccc3[C@H]2N1c1ccccc1 was tested, and the activation was inconclusive: 37.6%.
In the case of CC(C)c1ccc(NC(=O)C(c2ccccc2)N(C)C(=O)c2cnccn2)cc1 (stereo not given), the activation is reported as inactive: 29.8%.
Cc1ccc(C)c(S(=O)(=O)N2CCN(C(C(=O)Nc3ccc(F)cc3)c3ccccc3)CC2)c1 (stereo not given) was tested, and the activation was inactive: 5.59%.
C/C(=N\NC(=O)c1nn(C)c(C)c1Br)c1cccc(NC(=O)c2ccc(F)cc2)c1 was tested, and the activation was inactive: -0.161%.
In the case of O=C(c1ccc(N2C(=O)CCC2=O)cc1)N1CCN(c2ccccc2)CC1, the activation is reported as inactive: 1.45%.
With CCOc1ccc(C(=O)Nc2ccc(NC(=O)c3ccco3)c(Cl)c2)cc1Br the activation was inactive: 0.933%.
With CCOc1ccc(CCN2CN(C3CCCCC3)CNC2=S)cc1OCC the activation was inactive: 6.33%.
With Cc1cccc(C)c1OCC(=O)Nn1c(C)nc2ccccc2c1=O the activation was inconclusive: 32.1%.
For CC1=C(C(=O)OC(C)(C)C)C(c2ccc3ccccc3c2)NC(=O)N1C (stereo not given), the activation was inconclusive: 50%.
With Cc1cccc(C)c1OCc1cc(C(=O)NCC2CCCCC2)no1 the activation was inconclusive: 30%.
